Holding throughout (test): log2 fold change, soluble protein after heating vs DMSO (PISA); higher = thermal stabilisation; K562 lysate, 10 uM; active = over 0.2 and 3.5 SD of the protein, either way, in both replicates (recomputed)
Compound in assay [1]: NCC(=O)Nc1ccc(-n2nc(C(F)(F)F)cc2-c2ccc3c(ccc4ccccc43)c2)cc1
Summed up: (§1)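 Quantification was by TMTpro 16plex LC-MS/MS with equalised channel sums, applied to the supernatant after 21,000xg for 90 min. Samples were crude K562 extract at 1 mg/mL protein in PBS pH 7.4 with 1 mM MgCl2, treated with 10 μM compound for 30 min, heated for 3 min across 48°C-58°C, pooled and brought to 0.5% NP-40 at 4°C. Values are log-two fold changes in thermal stability relative to solvent controls, from duplicates.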

Amino acid sequences for entries named in this document (tags omitted). A change or cut given only in a name is not applied to a line headed by its entry.
UniProt Q5T1J5: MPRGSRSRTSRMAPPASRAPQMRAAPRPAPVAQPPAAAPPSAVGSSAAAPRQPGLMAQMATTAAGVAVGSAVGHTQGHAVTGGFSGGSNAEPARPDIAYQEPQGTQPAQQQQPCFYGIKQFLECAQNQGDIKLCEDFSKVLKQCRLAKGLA
UniProt P09497: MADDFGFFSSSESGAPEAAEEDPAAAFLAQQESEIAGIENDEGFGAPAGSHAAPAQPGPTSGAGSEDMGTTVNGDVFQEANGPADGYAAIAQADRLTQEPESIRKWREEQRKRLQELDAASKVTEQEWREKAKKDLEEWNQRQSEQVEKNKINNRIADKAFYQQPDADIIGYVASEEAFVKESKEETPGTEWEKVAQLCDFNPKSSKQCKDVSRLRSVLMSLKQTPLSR
UniProt Q8N3C7: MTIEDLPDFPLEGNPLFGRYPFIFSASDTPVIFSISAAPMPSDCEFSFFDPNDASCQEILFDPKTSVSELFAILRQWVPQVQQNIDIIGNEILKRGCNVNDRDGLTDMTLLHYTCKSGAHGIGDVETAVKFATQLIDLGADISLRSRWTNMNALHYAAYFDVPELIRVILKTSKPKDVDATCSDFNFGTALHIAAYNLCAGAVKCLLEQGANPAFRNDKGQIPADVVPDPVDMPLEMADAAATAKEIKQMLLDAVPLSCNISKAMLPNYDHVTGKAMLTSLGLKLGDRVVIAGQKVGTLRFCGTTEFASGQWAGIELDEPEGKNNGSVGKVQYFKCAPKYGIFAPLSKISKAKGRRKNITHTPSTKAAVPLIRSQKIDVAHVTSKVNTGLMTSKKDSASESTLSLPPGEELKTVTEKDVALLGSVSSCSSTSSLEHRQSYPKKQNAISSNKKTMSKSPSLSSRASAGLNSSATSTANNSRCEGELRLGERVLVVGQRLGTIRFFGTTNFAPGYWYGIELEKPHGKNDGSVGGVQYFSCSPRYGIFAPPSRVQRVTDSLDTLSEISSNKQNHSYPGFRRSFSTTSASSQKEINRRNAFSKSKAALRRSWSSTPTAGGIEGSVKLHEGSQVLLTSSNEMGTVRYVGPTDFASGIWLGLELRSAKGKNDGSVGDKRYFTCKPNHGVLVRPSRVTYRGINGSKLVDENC
UniProt Q9NY35: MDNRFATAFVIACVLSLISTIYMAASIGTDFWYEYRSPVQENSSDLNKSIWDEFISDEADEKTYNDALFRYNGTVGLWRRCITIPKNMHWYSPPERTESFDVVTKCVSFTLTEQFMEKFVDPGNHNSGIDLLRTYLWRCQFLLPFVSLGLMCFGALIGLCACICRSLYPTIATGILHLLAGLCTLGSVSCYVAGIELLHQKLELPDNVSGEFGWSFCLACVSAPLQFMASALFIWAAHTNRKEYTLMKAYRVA
UniProt Q8IY22: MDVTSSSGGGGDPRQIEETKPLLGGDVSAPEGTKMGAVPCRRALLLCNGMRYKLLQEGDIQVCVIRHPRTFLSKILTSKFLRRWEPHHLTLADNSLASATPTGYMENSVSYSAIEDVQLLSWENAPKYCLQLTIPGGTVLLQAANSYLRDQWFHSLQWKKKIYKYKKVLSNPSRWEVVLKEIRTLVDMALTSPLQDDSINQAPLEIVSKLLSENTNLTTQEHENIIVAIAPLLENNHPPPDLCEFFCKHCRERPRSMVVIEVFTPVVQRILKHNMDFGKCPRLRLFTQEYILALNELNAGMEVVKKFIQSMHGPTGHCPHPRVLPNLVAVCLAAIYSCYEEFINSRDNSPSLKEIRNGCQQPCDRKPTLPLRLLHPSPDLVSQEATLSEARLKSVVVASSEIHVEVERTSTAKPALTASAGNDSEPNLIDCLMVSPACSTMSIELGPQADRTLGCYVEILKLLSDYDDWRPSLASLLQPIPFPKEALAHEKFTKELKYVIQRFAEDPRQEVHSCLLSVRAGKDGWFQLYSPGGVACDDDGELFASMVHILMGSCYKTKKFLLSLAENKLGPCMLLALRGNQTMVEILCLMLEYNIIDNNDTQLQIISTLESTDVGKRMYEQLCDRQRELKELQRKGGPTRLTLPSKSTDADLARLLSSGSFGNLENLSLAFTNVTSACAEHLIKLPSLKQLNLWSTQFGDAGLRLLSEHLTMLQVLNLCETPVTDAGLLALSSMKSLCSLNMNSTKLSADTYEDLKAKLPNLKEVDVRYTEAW
UniProt Q96KA5: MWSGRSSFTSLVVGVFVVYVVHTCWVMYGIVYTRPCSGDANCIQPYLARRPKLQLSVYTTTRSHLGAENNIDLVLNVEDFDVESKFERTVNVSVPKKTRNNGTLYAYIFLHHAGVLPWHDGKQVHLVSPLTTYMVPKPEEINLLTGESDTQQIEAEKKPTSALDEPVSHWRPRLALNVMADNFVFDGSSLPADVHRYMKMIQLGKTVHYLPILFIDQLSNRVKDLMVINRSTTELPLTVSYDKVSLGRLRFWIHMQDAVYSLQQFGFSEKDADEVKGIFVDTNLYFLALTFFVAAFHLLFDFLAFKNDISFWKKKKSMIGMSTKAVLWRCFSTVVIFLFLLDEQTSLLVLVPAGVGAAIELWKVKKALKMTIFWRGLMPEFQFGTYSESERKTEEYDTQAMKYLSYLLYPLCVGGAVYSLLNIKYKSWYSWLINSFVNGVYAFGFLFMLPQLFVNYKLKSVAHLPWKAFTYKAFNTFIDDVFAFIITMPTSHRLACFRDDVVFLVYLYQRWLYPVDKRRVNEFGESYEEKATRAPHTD
UniProt Q9H444: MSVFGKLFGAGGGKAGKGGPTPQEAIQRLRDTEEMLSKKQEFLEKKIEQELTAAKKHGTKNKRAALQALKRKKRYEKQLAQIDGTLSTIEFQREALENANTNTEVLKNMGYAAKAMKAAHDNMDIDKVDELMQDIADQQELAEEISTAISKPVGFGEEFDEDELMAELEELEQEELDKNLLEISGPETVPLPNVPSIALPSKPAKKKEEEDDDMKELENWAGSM
UniProt Q9HAW4: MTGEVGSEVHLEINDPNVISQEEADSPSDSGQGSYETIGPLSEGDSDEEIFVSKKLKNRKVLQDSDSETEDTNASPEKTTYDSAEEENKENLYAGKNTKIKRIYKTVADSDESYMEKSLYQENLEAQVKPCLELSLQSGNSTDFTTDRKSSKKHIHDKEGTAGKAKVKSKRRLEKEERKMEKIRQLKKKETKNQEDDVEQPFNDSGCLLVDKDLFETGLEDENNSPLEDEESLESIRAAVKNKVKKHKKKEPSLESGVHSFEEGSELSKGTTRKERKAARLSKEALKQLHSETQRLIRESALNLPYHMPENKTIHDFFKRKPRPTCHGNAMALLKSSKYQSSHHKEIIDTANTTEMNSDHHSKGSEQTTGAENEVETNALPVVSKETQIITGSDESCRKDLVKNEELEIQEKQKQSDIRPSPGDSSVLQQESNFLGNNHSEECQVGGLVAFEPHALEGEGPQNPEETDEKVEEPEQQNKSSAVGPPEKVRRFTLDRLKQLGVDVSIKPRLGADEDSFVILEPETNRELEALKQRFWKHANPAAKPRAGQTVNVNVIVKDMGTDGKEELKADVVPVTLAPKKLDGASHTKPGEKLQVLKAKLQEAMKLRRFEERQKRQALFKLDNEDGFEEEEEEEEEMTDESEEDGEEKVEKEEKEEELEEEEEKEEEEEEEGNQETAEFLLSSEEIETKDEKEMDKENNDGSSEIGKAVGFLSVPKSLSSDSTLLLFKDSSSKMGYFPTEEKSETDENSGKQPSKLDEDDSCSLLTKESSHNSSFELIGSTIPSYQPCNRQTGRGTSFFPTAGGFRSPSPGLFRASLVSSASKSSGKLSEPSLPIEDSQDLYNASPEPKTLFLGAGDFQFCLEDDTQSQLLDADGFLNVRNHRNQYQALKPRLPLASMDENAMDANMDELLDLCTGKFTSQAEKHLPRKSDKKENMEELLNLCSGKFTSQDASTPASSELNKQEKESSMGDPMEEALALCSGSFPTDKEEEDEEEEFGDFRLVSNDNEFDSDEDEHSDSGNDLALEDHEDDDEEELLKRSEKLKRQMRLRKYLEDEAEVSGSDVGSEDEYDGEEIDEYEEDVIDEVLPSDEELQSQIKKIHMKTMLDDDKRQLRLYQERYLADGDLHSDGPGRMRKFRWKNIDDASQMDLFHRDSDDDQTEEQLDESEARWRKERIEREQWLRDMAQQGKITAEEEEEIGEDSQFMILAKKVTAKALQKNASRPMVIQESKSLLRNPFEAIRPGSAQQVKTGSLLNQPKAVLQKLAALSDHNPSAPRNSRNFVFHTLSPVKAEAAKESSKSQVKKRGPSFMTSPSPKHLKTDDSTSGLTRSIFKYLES
UniProt O15247: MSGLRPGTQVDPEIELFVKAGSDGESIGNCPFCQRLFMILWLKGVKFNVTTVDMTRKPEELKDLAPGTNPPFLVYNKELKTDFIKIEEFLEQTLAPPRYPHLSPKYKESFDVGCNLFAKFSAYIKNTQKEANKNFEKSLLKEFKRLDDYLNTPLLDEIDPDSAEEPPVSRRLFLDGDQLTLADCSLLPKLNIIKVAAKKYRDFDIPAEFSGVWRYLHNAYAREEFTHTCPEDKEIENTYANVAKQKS
UniProt Q8NFW8: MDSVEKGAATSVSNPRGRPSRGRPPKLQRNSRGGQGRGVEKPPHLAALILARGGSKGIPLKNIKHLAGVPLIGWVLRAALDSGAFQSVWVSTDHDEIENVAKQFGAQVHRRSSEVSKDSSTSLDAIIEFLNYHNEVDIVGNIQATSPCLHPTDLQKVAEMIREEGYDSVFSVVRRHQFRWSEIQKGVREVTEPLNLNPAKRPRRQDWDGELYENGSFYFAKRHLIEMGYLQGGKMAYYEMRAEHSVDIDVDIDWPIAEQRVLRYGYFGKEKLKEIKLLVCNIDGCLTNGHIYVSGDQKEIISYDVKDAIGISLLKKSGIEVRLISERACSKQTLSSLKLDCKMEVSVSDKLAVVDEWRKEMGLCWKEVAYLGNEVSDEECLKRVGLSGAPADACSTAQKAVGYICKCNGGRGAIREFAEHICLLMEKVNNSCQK
UniProt P12277: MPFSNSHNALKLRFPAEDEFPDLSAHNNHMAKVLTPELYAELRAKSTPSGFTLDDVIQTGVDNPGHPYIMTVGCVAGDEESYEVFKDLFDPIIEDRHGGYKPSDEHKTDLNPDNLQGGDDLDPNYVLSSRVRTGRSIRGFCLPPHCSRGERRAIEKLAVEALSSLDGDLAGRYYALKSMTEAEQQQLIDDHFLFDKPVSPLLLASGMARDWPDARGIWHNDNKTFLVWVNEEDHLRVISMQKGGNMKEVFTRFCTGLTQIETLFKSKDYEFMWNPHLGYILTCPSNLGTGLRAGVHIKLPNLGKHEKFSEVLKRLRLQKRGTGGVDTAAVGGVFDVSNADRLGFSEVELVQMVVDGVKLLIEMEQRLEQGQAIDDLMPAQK
UniProt Q8N2M8: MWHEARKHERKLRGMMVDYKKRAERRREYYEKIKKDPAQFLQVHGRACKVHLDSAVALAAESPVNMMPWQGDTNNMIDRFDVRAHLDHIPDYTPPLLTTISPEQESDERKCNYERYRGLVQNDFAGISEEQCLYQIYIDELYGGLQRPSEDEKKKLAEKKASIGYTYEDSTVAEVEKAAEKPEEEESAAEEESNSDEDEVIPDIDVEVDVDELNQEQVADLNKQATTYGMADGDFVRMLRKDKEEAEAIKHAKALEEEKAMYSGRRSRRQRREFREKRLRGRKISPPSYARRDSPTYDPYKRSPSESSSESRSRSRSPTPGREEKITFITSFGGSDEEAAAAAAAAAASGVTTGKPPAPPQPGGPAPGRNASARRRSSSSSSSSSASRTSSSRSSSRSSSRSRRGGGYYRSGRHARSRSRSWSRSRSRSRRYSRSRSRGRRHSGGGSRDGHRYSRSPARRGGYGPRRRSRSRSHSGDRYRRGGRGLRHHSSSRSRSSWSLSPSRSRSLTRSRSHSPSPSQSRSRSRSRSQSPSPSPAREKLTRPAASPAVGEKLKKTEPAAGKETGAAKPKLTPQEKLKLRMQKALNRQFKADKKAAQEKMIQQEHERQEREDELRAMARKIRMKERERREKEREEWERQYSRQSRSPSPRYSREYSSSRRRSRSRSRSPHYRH
UniProt Q7Z7K0: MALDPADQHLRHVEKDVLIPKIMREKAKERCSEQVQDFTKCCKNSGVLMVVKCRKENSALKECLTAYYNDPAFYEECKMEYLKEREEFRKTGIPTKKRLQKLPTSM
UniProt O14757: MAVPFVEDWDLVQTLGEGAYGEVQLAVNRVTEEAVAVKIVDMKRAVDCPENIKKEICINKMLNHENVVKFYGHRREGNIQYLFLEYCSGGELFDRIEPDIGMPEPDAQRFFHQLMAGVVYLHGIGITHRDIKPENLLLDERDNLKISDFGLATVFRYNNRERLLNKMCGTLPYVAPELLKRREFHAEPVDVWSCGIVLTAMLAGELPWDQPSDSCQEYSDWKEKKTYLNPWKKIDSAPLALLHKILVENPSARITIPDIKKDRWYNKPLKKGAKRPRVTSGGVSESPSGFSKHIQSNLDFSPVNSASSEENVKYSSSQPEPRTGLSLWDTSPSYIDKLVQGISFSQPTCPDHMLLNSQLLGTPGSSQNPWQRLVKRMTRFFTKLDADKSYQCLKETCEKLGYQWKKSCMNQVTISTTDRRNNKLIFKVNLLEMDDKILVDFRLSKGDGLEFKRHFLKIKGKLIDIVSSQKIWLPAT

Compound in another assay: O=C(CCCCCCC(=O)Nc1ccccc1)NO [vorinostat]
Summed up: as §1

Compound in a further assay: O=C(O)c1ccc2c(c1)nc(Nc1cccc(Cl)c1)c1ccncc12 [silmitasertib]
Summed up: as §1

Compound in assay [2]: O=C1NC(=O)C(c2cnc3ccccn23)=C1c1cn2c3c(cc(F)cc13)CN(C(=O)N1CCCCC1)CC2
The method, boiled down:
as §1

Compound in another assay: c1cn2cc(-c3ccc4cn[nH]c4c3)nc(Nc3ccc(N4CCOCC4)cc3)c2n1 [entospletinib]
Summed up: as §1

25 targets from the supplement of paper PMC10849652 can be followed below.

This is one part of the list.

As for CHCHD2P9 (UniProt Q5T1J5), the log2 fold change in assay [1] is inactive: -0.028; with vorinostat, inactive: -0.013; with silmitasertib, inactive: -0.096; in assay [2], inactive: 0.002; in the assay with entospletinib, inactive: -0.074.

Take CLTB isoform 2 (UniProt P09497): the log2 fold change is inactive: -0.014 in assay [1]; inactive: 0.128 with vorinostat; inactive: -0.017 with silmitasertib; inactive: -0.006 in assay [2]; inactive: 0.011 with entospletinib.

In the case of CLIP4 (UniProt Q8N3C7), the log2 fold change in assay [1] is inactive: 0.014; with vorinostat, inactive: 0.046; in the assay with silmitasertib, inactive: 0.034; in assay [2], inactive: 0.031; with entospletinib, inactive: -0.094.

As to CKAP5 (UniProt Q14008), the log2 fold change in assay [1] was inactive: -0.013; with vorinostat it was active: -0.269; with silmitasertib it was inactive: 0.011; in assay [2], inactive: 0.002; with entospletinib, inactive: 0.005.

Regarding CLUAP1 (UniProt I3L2E1), the log2 fold change in assay [1] is inactive: 0.141; in the assay with vorinostat, inactive: -0.13; with silmitasertib it was inactive: -0.049; in assay [2], inactive: 0.303; with entospletinib, inactive: 0.011.

In the case of CLDND1 (UniProt Q9NY35), the log2 fold change in assay [1] was inactive: -0.053; with vorinostat it was inactive: 0.04; with silmitasertib it was inactive: 0.014; in assay [2], inactive: -0.115; with entospletinib, inactive: 0.114.

Consider CMIP (UniProt Q8IY22), for which the log2 fold change was inactive: -0.101 in assay [1]; active: -0.541 with vorinostat; inactive: 0.018 in the assay with silmitasertib; inactive: 0.021 in assay [2]; inactive: -0.052 in the assay with entospletinib.

Take CLPX (UniProt O76031): the log2 fold change was inactive: 0.059 in assay [1]; inactive: -0.051 with vorinostat; inactive: 0.016 with silmitasertib; inactive: 0.027 in assay [2]; inactive: 0.056 with entospletinib.

Consider CLPTM1L (UniProt Q96KA5), for which the log2 fold change in assay [1] was inactive: -0.045; in the assay with vorinostat, inactive: 0.136; in the assay with silmitasertib, inactive: 0.012; in assay [2], inactive: 0.012; with entospletinib it was inactive: -0.039.

Regarding CHMP4B (UniProt Q9H444), the log2 fold change is inactive: 0.036 in assay [1]; inactive: 0.058 in the assay with vorinostat; inactive: -0.014 in the assay with silmitasertib; inactive: -0.043 in assay [2]; inactive: -0.027 in the assay with entospletinib.

Consider CHST11 (UniProt Q9NPF2), for which the log2 fold change in assay [1] is inactive: -0.144; with vorinostat it was inactive: 0.149; with silmitasertib it was inactive: 0.062; in assay [2], inactive: -0.03; with entospletinib it was inactive: 0.113.

On to CLSPN (UniProt Q9HAW4), for which the log2 fold change was inactive: 0 in assay [1]; inactive: 0.045 in the assay with vorinostat; inactive: -0.043 in the assay with silmitasertib; inactive: -0.013 in assay [2]; inactive: 0.016 with entospletinib.

CLIC2 (UniProt O15247): the log2 fold change in assay [1] was inactive: 0.022; with vorinostat, active: -0.369; with silmitasertib, inactive: -0.018; in assay [2], inactive: 0.029; with entospletinib, inactive: 0.005.

In the case of CMAS (UniProt Q8NFW8), the log2 fold change is inactive: 0.008 in assay [1]; inactive: -0.051 with vorinostat; inactive: 0.003 in the assay with silmitasertib; inactive: -0.016 in assay [2]; inactive: 0.048 with entospletinib.

As to CIAO1 (UniProt O76071), the log2 fold change in assay [1] was inactive: 0.024; with vorinostat, inactive: 0.014; in the assay with silmitasertib it was inactive: -0.019; in assay [2], inactive: 0.058; with entospletinib it was inactive: -0.035.

In the case of CLN6 (UniProt Q9NWW5), the log2 fold change in assay [1] was inactive: -0.088; with vorinostat, inactive: 0.05; with silmitasertib, inactive: 0.077; in assay [2] it was inactive: 0.145; with entospletinib, inactive: -0.054.

Regarding CKB (UniProt P12277), the log2 fold change in assay [1] is inactive: 0; with vorinostat it was inactive: -0.091; in the assay with silmitasertib, inactive: 0.017; in assay [2], inactive: -0.015; with entospletinib, inactive: -0.005.

For CLASRP (UniProt Q8N2M8), the log2 fold change in assay [1] is inactive: 0.017; with vorinostat, inactive: 0.082; with silmitasertib, inactive: -0.015; in assay [2], inactive: -0.052; with entospletinib, inactive: 0.015.

For CLUAP1 (UniProt Q96AJ1), the log2 fold change is inactive: -0.04 in assay [1]; inactive: -0.197 with vorinostat; inactive: -0.053 in the assay with silmitasertib; inactive: 0 in assay [2]; inactive: -0.079 with entospletinib.

With CKMT1A (UniProt P12532), the log2 fold change is inactive: 0.017 in assay [1]; inactive: 0.07 with vorinostat; inactive: -0.041 with silmitasertib; inactive: -0.004 in assay [2]; inactive: -0.047 with entospletinib.

As to CHCHD3 (UniProt Q9NX63), the log2 fold change in assay [1] is inactive: 0.041; in the assay with vorinostat, inactive: 0.046; with silmitasertib it was inactive: 0.018; in assay [2] it was inactive: 0.007; with entospletinib, inactive: -0.016.

For CMC1 (UniProt Q7Z7K0), the log2 fold change is inactive: 0.039 in assay [1]; inactive: 0.086 with vorinostat; inactive: 0.037 with silmitasertib; inactive: 0.017 in assay [2]; inactive: -0.08 with entospletinib.

For CHMP3 (UniProt Q9Y3E7), the log2 fold change is inactive: 0.016 in assay [1]; inactive: 0.109 with vorinostat; inactive: -0.037 with silmitasertib; inactive: 0.02 in assay [2]; inactive: 0.019 with entospletinib.

Take CIB1 (UniProt Q99828): the log2 fold change in assay [1] is inactive: -0.027; in the assay with vorinostat it was inactive: 0.049; with silmitasertib, inactive: -0.006; in assay [2], inactive: -0.037; in the assay with entospletinib, inactive: -0.091.

Take CHEK1 (UniProt O14757): the log2 fold change in assay [1] was inactive: 0.008; with vorinostat, inactive: 0.086; in the assay with silmitasertib it was inactive: 0.168; in assay [2], inactive: -0.014; with entospletinib, inactive: 0.009.
